Measurements: publication PMC8507667
Results are given in words; binding and its absence hold for the method and conditions named. In cells and extracts the contact can be indirect.

Chains of the proteins cited; added tags and fusions are not shown. Lines headed by an entry give the natural chain unless they say otherwise; changes in a name come on top. Residues count along the entry.
UniProt P08581, residues 25-1390: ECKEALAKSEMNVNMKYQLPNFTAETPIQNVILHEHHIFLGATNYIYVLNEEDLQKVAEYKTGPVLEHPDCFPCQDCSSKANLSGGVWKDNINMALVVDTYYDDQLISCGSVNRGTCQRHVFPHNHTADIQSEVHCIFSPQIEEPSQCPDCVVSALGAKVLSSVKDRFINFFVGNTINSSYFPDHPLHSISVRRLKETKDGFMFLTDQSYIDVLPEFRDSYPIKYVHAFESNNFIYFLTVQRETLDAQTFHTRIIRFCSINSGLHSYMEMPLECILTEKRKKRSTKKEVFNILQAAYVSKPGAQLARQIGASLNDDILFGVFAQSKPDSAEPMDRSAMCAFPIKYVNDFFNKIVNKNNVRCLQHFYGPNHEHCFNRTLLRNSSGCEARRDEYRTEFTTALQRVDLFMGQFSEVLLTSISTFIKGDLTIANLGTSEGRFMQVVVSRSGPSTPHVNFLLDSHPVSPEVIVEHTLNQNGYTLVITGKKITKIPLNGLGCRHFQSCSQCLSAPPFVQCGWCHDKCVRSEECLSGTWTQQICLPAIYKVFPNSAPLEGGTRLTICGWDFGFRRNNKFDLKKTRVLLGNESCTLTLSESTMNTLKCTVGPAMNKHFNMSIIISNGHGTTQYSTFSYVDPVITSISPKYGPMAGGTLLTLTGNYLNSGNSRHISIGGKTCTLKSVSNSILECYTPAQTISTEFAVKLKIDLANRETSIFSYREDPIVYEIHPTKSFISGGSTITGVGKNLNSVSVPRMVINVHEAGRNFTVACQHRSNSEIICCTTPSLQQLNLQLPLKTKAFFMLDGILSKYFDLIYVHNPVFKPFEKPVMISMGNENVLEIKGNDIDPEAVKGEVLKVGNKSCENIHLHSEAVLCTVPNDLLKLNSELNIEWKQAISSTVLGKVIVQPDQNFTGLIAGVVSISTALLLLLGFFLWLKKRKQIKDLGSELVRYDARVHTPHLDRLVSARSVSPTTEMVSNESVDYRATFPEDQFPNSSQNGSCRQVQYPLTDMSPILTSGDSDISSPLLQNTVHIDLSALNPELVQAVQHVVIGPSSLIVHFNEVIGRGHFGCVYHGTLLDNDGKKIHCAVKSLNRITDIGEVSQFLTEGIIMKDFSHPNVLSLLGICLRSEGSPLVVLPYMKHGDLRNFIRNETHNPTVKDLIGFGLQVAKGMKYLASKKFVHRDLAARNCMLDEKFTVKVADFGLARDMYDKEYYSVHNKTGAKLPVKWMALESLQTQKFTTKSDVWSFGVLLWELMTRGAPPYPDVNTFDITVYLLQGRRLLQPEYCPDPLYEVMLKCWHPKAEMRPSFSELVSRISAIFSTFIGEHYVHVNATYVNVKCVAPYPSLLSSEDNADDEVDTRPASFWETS
UniProt P04233: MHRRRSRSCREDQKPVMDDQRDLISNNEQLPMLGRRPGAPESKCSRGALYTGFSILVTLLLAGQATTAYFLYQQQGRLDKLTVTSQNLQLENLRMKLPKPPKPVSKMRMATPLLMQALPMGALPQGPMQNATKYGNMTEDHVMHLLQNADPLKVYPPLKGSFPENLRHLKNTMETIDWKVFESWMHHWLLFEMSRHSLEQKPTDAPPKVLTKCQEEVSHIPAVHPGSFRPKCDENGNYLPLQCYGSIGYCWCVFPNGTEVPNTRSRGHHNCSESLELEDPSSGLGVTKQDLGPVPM

Molecular target: receptor tyrosine kinase MET (human (endogenous in ALCL cell lines)) (UniProt P08581)
Assay: co-IP; various immunoprecipitation approaches in ALCL cell lines; endogenous proteins; no further details given

binding: no binding
Substance: CD74 (invariant chain of major histocompatibility complex [MHC]-II) (from UniProt P04233 1-296)
